In PubChem BioAssay AID2685 (National Center for Advancing Translational Sciences (NCATS), 2010):
This is one part of the list. Shown are side measurements of this screen, not its main read-out; they come without a call. Compounds called inactive in the main read-out are mostly missing here. Words in brackets tell the shape of the fitted curve; partial curves, single points and poor fits give uncertain potencies.

Test: qHTS Assay for Lipid Storage Modulators in Drosophila S3 Cells;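 on cell number change: cells counted by Cell Tracker Red CMTPX staining in the red channel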
Settings: BODIPY lipid droplet fluorescence, 18-24 h; for cell number change: measured here: cell count max response, cells fed with added oleic acid
In short: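 Drosophila S3 cells got compounds at several concentrations plus oleic acid (400 uM solution). Laser-scanning cytometry with 488 nm excitation read lipid droplets at 500-530 nm and cells at 575-640 nm. Percent activity was relative to 20 uM Triacsin C.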

[1] = measured here: cell number channel AC50, cells fed with added oleic acid
[2] = measured here: lipid fluorescence (Fed channel) AC50, cells fed with added oleic acid

SMILES: Cc1csc(SCC(=O)NC(C)c2ccc(F)cc2)n1 (stereo not drawn)
- cell number change: -9.84%

SMILES: Cc1ccc(Nc2cc(C)nc3c(C)ccc([N+](=O)[O-])c23)cc1
- cell number change: -41.4%
- AC50 [1]: 20.6 µM [falling, single point]
- AC50 [2]: 10.3 µM [falling, partial curve]

SMILES: O=C(CCc1ccccc1)N/N=C/c1cc(Br)ccc1O
- cell number change: -18.6%
- AC50 [2]: 29.1 µM [falling, single point]

SMILES: Cc1cc(C)c2c(c1)/C(=N/NC(=O)c1cc(C)oc1C)CCC2
- cell number change: -26.2%

SMILES: CCOc1ccc(-c2c(C(=O)N/N=C/c3sccc3C)nnn2-c2nonc2N)cc1
- cell number change: 22%

SMILES: CCOC(=O)Cn1nnnc1C(CC)N(Cc1cc2ccc(C)cc2[nH]c1=O)C1CCCC1 (stereo not drawn)
- cell number change: 19.1%

SMILES: COc1ccc(NC(=O)c2ccc3c(c2)OCCO3)cc1OC
- cell number change: 7.89%

SMILES: CC[N+](CC)(CC=C(C)C)CC(=O)OC
- cell number change: -13.4%
- AC50 [2]: 29.1 µM [falling, single point]

SMILES: Cc1cc(N)nc(SCC(=O)N2C(C)CCCC2C)n1 (stereo not drawn)
- cell number change: 9.4%
- AC50 [2]: 0.0651 µM [falling, full curve, poor fit]

SMILES: O=C(NCc1ccco1)c1ccc2c(c1)N(Cc1ccccc1)C(=O)CS2
- cell number change: 82.9%
- AC50 [1]: 11.6 µM [rising, partial curve]
- AC50 [2]: 1.16 µM [rising, full curve]

SMILES: CN1CCN(NC(=O)c2cc(-c3ccc(Br)s3)nc3ccccc23)CC1
- cell number change: 21.2%

SMILES: COc1cc(S(=O)(=O)n2ccc(C)n2)c(OC)cc1Cl
- AC50 [1]: 0.517 µM [rising, full curve]
- AC50 [2]: 0.58 µM [rising, single point]

SMILES: O=C(C1CCCCN1S(=O)(=O)c1ccccc1)N1CCN(Cc2ccccc2)CC1 (stereo not drawn)
- cell number change: 3.38%
- AC50 [2]: 0.651 µM [falling, single point]

SMILES: Cc1ccc2cccc(S(=O)(=O)n3nc(C)cc3C)c2n1
- cell number change: -104%
- AC50 [1]: 29.1 µM [falling, single point]

SMILES: C#CCOCCOCCOCCNc1nc(N2CCN(C(=O)CCCCCCCCCCNC(=O)[C@H](CCCCN)n3cc(CCO)nn3)CC2)nc(N2CCN(C(=O)CCCCCCCCCCNC(=O)[C@@H]([C@H](C)O)n3cc(C)nn3)CC2)n1
- cell number change: -18%
- AC50 [2]: 29.1 µM [falling, single point]

SMILES: O=C(Nc1ccccc1N1CCOCC1)C1Cc2ccccc2CN1C(=O)c1ccco1 (stereo not drawn)
- cell number change: 9.59%
- AC50 [1]: 2.91 µM [rising, partial curve]
- AC50 [2]: 6.51 µM [rising, single point]

SMILES: O=C(COC(=O)C1(c2ccccc2F)CCCC1)NCc1cccs1
- cell number change: -14.1%
- AC50 [2]: 29.1 µM [falling, single point]

SMILES: O=S(=O)(c1ccccc1)c1nc(NCc2cccnc2)sc1Cl
- cell number change: -38.6%
- AC50 [1]: 20.6 µM [falling, single point]

SMILES: COc1cc2c(cc1OC)-c1cc(NC3CCCC3)nc(=O)n1CC2
- cell number change: 1.89%
- AC50 [2]: 0.461 µM [rising, full curve, poor fit]

SMILES: O=S(=O)(Nc1ccc2c(c1)OCO2)c1cccc(Br)c1
- cell number change: 6.66%
- AC50 [2]: 3.66 µM [falling, full curve]

SMILES: O=C(CSc1nnc2ccccn12)Nc1ccc2c(c1)OCCO2
- cell number change: -13.8%

SMILES: Cc1nc(N/N=C/c2cccc(F)c2)cc(N2CCOCC2)n1
- cell number change: -19.9%
- AC50 [2]: 29.1 µM [falling, single point]

SMILES: O=S(=O)(Cc1nc2ccccc2s1)c1ccccc1
- cell number change: 4.69%
- AC50 [2]: 20.6 µM [rising, single point]

SMILES: O=C(CSc1nc(=O)n2ccccc2n1)N1CCN(c2ccccc2)CC1
- AC50 [1]: 1.84 µM [rising, partial curve, poor fit]

SMILES: Cc1ccc(S(=O)(=O)Nc2cccc(C(=O)NCCN3CCOCC3)c2)cc1F
- cell number change: -13.1%
- AC50 [2]: 1.84 µM [falling, partial curve]

SMILES: Cc1nc(-c2ccccn2)sc1C(=O)Nc1ccc(Cl)c(Cl)c1
- AC50 [2]: 6.51 µM [rising, single point]

SMILES: CC(C)(C)C(=O)Cn1nnc(-c2ccc(C(F)(F)F)cc2)n1
- cell number change: 26.4%

SMILES: O=C(NCCc1nc2ccccc2[nH]1)c1ccc(Br)o1
- cell number change: 0.952%
- AC50 [2]: 29.1 µM [falling, single point]

SMILES: C(#Cc1ccccc1)CN1CCN(c2ccccn2)CC1
- cell number change: -0.75%
- AC50 [2]: 0.651 µM [falling, full curve, poor fit]

SMILES: Cc1onc(-c2c(F)cccc2Cl)c1C(=O)Nc1ccc(S(=O)(=O)Nc2ncccn2)cc1
- cell number change: 1.29%

SMILES: Cc1ccc(Nc2c(-c3ccccn3)nc3cccc(C)n23)cc1
- cell number change: -74.9%
- AC50 [1]: 5.17 µM [falling, single point]
- AC50 [2]: 29.1 µM [falling, single point]

SMILES: CC(C(=O)NCC1(c2ccccc2)CCCC1)N1CCCC1 (stereo not drawn)
- cell number change: -12.1%
- AC50 [2]: 0.184 µM [rising, full curve, poor fit]

SMILES: CCC1=C2CC[C@H]3C(=O)N(C)C(=O)[C@H]3[C@H]2[C@@]2(Cc3ccccc3)C(=NCCOC)OC(=O)N2C1=O
- cell number change: 13.2%
- AC50 [2]: 1.84 µM [rising, full curve, poor fit]

SMILES: CCOC(=O)c1c(NC(=S)NC)sc2c1CCCC2
- cell number change: -36%
- AC50 [1]: 29.1 µM [falling, single point]
- AC50 [2]: 29.1 µM [falling, single point]

SMILES: CCOC(=O)N1CCC(c2nc(C)sc2C(=O)O)CC1
- cell number change: 21.1%
- AC50 [2]: 3.66 µM [rising, single point]

SMILES: CN(CCc1ccccn1)S(=O)(=O)c1ccccc1F
- cell number change: -0.349%
- AC50 [2]: 6.51 µM [rising, single point]

SMILES: CCC1CCC2(CC1)NC(=O)N(CC(=O)Nc1cccc(S(=O)(=O)N(C)c3ccccc3)c1)C2=O (stereo not drawn)
- cell number change: -9.02%

SMILES: Cc1cnn(C(=S)NCc2ccc(Cl)cc2)c1
- cell number change: -36.5%
- AC50 [1]: 13 µM [falling, partial curve]
- AC50 [2]: 16.4 µM [falling, partial curve]

SMILES: NC(=S)N/N=C/c1c[nH]c2ccc(OCc3ccccc3)cc12
- cell number change: 3.02%
- AC50 [1]: 0.731 µM [falling, partial curve]

SMILES: Cc1cc(=O)n2nc(N3CCCC3C(=O)NCc3ccccn3)sc2n1 (stereo not drawn)
- cell number change: 0.129%

SMILES: Cc1ccc2ccccc2[n+]1CCCS(=O)(=O)[O-]
- cell number change: -12.9%
- AC50 [2]: 0.00461 µM [falling, full curve, poor fit]

SMILES: Cc1ccc(C(=O)NC2(C(F)(F)F)N=C3SCCN3C2=O)cc1 (stereo not drawn)
- cell number change: -26.6%
- AC50 [2]: 18.4 µM [falling, partial curve]

SMILES: N#Cc1ccc(-c2csc(NC(=O)/C=C/c3cccs3)n2)cc1
- cell number change: -25.7%
- AC50 [1]: 0.731 µM [falling, full curve, poor fit]

SMILES: COc1cc2c(C#CCCCO)c(-c3ccc(C#N)cc3)oc(=O)c2cc1OC
- cell number change: 21.5%
- AC50 [2]: 0.00461 µM [rising, full curve, poor fit]

SMILES: CCN(CC)C(=O)c1sc(NC(=O)Cc2ccc(OC)cc2)c(C#N)c1C
- AC50 [1]: 2.31 µM [rising, partial curve]

SMILES: CC(=O)NC(CC(=O)Nc1cccc(S(=O)(=O)N2CCCCC2)c1)c1ccccc1 (stereo not drawn)
- AC50 [1]: 6.51 µM [rising, single point]

SMILES: C=C(C)CN=c1scc(C)n1/N=C/c1ccco1
- cell number change: 31.1%
- AC50 [1]: 32.6 µM [rising, single point]

SMILES: COc1ccc(C)cc1NC(=O)CSCc1ccccc1C
- cell number change: -13.5%
- AC50 [2]: 6.51 µM [falling, partial curve]

SMILES: O=C1C(=O)N(CNc2ccccn2)c2ccccc21
- cell number change: -3.71%
- AC50 [1]: 6.51 µM [falling, single point]
- AC50 [2]: 0.651 µM [falling, full curve, poor fit]

SMILES: CCCCn1c(O)c(/C=C/C=C/C=Nc2ccccc2)sc1=S
- cell number change: 6.72%
- AC50 [1]: 0.0366 µM [falling, full curve, poor fit]
- AC50 [2]: 0.00651 µM [falling, full curve, poor fit]

SMILES: O=C(CN1CCCc2ccccc21)NCCc1ccc(F)cc1
- cell number change: 6.46%
- AC50 [2]: 0.092 µM [falling, full curve, poor fit]

SMILES: CC(=O)Nc1ncc(Cc2cc(Cl)ccc2Cl)s1
- cell number change: 14%
- AC50 [2]: 13 µM [rising, partial curve, poor fit]

SMILES: COc1ccc(C(=O)NC(=S)Nc2ccc(N3CCN(C(C)=O)CC3)cc2)cc1[N+](=O)[O-]
- cell number change: -36.7%
- AC50 [1]: 18.4 µM [falling, single point]
- AC50 [2]: 25.9 µM [falling, single point]

SMILES: COc1ccc([C@H]2CC(=O)C=C(c3cccc(C(F)(F)F)c3)C2)cc1
- cell number change: -20.4%
- AC50 [1]: 1.3 µM [falling, single point]
- AC50 [2]: 0.92 µM [falling, single point]

SMILES: N#CC1(NC(=O)COC(=O)c2nc(Cl)ccc2Cl)CCCCC1
- cell number change: 2.62%
- AC50 [2]: 1.84 µM [falling, partial curve]

SMILES: COc1ccc(N(C(=O)c2ccco2)C(C(=O)NC2CCCC2)c2ccco2)cc1OC (stereo not drawn)
- cell number change: -1.9%
- AC50 [2]: 6.51 µM [falling, single point]

SMILES: Cn1nnc2ccccc2c1=O
- cell number change: 16.6%
- AC50 [2]: 16.4 µM [rising, single point]

SMILES: Nc1nc2c(s1)COc1ccccc1-2
- cell number change: 27%
- AC50 [2]: 9.2 µM [rising, partial curve]

SMILES: Cc1ccnc(NC(=O)C2CCN(S(=O)(=O)c3ccc4c(c3)CC(C)N4C(=O)C3CCC3)CC2)c1 (stereo not drawn)
- cell number change: 1.53%
- AC50 [2]: 6.51 µM [rising, single point]

SMILES: Cc1ccc(Nc2nnc(SCC(=O)Nc3ncc(S(=O)(=O)c4ccc([N+](=O)[O-])cc4)s3)s2)cc1
- cell number change: 54.8%
- AC50 [1]: 29.1 µM [rising, single point]
- AC50 [2]: 0.517 µM [rising, full curve, poor fit]

SMILES: COC(=O)c1cc(C(=O)N2CCN(c3cccc(Cl)c3)CC2)cc([N+](=O)[O-])c1
- cell number change: 14.3%
- AC50 [2]: 20.6 µM [rising, single point]
